Data taken from PMC9590589 (RSC Advances, 2022).

Test system: MDA-MB231 (breast) cells
Assay: MTT cytotoxicity assay, MDA-MB231
Type: cell-based
Conditions: Homo sapiens, MDA-MB-231, 24 h, read-out: Cytotoxic activity, IC50, MDA-MB231
In short: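 Cells grown in DMEM/F12 with 10% FBS, penicillin (100 U mL−1) and streptomycin (100 μg mL−1) at 37 °C, 5% CO2, and passaged twice weekly by trypsinization. Seeded at 5 × 10^3 cells per well for 24 h, then exposed to a range of test compound concentrations for 24 h. MTT (5 mg mL−1 stock) added for 2 h, supernatant removed, formazan dissolved in DMSO, absorbance read at 540 nm, and IC50 calculated. Controls: doxorubicin (positive) and 0.75% DMSO (negative).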

COc1cccc2c1C(=O)c1c(O)c3c(c(O)c1C2=O)C[C@@](O)(C(=O)CO)C[C@@H]3O[C@H]1C[C@H](N)[C@H](O)[C@H](C)O1 [Doxorubicin, reference compound]
IC50: 3.1 µM
